Among the data in the supplement of paper PMC10849652 are log2 fold change values, retold here.

Sequences of proteins named here, by UniProt entry; tags and fusion partners are left off. A change or cut given only in a name is not applied to a line headed by its entry.
UniProt Q9NWZ5: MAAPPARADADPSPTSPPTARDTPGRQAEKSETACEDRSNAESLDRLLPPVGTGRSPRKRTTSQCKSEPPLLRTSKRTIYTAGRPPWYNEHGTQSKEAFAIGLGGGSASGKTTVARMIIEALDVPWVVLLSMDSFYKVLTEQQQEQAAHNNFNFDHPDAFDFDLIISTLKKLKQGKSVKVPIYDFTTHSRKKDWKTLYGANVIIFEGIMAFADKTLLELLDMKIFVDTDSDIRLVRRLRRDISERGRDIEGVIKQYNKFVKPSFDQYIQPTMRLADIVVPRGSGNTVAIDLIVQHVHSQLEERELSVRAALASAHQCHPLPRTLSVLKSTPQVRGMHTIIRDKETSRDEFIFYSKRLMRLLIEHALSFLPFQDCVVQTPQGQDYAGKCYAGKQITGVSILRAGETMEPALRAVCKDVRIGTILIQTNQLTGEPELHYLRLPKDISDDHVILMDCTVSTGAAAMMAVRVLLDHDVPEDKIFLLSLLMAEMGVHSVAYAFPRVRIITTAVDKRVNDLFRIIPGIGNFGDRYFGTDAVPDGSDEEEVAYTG
UniProt P63027, whole entry, looked up: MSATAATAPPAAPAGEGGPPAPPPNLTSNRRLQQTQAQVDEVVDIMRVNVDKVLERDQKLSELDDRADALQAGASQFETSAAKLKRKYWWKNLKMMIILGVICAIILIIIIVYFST
UniProt Q8N806: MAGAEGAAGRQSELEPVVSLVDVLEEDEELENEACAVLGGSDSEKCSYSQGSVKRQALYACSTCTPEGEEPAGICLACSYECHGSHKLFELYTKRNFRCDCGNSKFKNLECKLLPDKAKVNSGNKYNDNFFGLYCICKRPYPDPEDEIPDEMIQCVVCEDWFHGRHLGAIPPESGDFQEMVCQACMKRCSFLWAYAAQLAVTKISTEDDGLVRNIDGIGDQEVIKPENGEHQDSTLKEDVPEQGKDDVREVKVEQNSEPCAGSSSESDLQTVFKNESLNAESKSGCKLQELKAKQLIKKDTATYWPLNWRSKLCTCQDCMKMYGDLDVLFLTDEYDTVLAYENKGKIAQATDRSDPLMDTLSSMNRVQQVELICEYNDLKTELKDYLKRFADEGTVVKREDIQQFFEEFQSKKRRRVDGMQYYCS
UniProt Q9BRT2: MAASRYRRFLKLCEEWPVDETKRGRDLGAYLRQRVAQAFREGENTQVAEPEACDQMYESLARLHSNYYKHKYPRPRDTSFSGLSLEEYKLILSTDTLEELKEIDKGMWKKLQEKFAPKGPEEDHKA
UniProt O60701: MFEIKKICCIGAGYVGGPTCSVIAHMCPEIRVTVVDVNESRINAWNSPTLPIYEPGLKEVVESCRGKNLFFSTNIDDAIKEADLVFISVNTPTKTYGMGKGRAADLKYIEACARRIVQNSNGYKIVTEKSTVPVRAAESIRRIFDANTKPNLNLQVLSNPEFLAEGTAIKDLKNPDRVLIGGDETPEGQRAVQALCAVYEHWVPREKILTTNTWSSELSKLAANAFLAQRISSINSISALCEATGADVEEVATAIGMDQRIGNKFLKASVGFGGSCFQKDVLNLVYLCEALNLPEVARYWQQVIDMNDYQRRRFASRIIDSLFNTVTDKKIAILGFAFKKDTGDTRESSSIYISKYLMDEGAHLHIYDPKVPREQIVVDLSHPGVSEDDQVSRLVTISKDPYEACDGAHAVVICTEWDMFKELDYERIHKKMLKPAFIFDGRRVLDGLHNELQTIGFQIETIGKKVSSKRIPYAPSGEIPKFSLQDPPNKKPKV
UniProt Q15386: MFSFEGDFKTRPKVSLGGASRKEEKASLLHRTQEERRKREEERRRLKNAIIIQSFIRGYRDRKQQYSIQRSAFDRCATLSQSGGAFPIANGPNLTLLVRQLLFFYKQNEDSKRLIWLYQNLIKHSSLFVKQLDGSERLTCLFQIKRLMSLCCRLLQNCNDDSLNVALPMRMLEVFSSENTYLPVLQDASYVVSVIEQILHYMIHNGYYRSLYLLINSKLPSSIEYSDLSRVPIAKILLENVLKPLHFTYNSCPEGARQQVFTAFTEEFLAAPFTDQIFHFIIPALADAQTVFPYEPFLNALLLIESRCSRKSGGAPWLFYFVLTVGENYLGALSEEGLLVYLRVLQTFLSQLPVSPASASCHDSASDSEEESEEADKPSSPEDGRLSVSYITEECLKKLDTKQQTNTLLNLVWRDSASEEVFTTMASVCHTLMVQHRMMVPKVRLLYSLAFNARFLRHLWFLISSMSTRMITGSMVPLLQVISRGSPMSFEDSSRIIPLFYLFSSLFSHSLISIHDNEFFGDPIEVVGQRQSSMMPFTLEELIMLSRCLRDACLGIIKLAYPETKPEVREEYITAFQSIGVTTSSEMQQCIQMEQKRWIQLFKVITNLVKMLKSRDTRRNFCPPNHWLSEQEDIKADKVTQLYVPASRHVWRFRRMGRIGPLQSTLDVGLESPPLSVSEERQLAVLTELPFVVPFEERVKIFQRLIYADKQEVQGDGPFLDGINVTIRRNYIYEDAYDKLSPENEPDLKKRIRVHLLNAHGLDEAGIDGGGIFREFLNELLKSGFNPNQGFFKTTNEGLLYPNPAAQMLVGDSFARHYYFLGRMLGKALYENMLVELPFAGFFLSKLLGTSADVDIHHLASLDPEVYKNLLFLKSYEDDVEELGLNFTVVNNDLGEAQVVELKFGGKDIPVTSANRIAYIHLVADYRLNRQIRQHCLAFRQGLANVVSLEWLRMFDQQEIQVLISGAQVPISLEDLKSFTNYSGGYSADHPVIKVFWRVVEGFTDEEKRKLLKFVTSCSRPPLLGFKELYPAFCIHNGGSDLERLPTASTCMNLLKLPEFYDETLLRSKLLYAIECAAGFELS
UniProt Q9UHP3: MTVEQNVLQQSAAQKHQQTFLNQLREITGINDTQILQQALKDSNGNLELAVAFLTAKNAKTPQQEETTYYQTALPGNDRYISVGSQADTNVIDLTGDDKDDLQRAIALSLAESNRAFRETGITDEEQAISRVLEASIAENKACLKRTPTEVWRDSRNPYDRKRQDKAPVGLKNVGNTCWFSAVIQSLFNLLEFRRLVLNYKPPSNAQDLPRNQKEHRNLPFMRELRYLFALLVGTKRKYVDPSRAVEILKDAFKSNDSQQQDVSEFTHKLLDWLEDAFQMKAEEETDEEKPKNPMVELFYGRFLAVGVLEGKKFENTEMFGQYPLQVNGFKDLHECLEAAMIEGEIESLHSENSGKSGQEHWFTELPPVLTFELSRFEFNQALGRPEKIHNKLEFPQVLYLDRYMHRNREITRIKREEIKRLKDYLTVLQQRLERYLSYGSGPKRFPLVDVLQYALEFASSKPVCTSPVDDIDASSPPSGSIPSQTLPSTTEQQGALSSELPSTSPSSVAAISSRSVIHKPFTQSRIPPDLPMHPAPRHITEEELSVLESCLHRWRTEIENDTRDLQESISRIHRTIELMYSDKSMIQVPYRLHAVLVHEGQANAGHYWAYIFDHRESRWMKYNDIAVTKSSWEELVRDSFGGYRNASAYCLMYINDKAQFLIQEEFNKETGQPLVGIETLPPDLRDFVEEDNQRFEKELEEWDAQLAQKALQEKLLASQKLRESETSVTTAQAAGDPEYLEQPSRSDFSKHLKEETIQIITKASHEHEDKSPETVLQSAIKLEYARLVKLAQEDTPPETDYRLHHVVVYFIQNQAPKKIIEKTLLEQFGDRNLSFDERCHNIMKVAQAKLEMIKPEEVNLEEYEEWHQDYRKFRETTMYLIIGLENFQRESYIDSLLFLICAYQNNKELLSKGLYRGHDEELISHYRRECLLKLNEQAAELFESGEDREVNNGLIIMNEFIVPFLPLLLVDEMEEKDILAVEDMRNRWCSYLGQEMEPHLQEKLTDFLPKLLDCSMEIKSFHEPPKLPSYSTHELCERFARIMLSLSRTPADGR
UniProt Q96RL1: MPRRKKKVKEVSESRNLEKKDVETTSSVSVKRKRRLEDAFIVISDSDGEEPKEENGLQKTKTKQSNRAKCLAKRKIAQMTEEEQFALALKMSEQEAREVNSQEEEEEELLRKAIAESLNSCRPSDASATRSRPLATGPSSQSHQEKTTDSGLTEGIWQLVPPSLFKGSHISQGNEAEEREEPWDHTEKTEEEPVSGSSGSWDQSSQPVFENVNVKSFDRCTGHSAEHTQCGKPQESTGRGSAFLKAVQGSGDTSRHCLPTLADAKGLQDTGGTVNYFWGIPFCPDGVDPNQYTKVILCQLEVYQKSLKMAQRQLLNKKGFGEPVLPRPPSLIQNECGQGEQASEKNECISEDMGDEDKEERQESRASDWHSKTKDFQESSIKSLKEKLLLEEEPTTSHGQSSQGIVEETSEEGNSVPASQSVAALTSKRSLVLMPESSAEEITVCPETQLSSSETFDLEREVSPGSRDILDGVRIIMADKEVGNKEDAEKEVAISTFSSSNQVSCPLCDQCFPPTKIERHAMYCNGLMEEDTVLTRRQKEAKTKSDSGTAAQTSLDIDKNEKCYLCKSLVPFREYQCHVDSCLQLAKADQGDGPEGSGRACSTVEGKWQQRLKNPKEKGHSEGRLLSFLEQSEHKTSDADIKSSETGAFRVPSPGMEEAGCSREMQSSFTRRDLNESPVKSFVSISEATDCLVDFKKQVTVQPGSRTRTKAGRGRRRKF
UniProt Q9H3U1: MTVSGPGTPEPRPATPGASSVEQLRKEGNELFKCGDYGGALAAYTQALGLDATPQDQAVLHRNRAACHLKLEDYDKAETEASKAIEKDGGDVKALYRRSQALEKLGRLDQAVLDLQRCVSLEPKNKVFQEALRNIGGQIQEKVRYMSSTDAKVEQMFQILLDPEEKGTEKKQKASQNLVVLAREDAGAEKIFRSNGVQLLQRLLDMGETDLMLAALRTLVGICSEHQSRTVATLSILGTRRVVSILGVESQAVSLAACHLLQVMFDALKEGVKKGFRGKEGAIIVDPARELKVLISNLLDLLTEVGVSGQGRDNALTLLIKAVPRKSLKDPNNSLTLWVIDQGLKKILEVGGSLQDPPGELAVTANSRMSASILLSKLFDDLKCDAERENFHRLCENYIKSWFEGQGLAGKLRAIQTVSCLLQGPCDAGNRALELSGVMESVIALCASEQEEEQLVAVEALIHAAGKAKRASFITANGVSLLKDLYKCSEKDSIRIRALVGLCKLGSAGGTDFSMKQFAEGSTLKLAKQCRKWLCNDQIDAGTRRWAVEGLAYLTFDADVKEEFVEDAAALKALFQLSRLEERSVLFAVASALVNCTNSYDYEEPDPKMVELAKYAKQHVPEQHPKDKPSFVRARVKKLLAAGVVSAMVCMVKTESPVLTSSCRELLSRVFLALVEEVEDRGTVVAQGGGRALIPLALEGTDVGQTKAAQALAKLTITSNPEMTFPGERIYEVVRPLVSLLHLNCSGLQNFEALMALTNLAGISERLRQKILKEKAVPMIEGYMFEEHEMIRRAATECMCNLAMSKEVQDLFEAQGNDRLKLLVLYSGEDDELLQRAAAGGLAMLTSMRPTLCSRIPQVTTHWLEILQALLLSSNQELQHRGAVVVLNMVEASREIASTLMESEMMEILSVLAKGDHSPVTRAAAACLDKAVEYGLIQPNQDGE
UniProt Q53GS9: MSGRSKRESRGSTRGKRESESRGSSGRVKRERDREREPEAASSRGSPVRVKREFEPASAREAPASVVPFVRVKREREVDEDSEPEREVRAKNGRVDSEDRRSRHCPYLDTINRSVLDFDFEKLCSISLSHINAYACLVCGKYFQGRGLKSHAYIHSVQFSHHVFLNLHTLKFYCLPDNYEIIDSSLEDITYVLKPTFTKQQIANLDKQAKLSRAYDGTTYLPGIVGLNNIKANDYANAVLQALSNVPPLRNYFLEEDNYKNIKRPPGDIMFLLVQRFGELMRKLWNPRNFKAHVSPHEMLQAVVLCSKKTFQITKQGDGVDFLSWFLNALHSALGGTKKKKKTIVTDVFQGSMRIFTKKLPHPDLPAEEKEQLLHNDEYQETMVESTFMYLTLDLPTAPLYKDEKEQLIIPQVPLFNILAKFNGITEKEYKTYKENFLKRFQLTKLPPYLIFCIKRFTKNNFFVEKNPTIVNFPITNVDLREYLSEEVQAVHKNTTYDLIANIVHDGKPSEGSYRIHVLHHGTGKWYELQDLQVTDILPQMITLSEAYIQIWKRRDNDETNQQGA
UniProt Q8TAA9: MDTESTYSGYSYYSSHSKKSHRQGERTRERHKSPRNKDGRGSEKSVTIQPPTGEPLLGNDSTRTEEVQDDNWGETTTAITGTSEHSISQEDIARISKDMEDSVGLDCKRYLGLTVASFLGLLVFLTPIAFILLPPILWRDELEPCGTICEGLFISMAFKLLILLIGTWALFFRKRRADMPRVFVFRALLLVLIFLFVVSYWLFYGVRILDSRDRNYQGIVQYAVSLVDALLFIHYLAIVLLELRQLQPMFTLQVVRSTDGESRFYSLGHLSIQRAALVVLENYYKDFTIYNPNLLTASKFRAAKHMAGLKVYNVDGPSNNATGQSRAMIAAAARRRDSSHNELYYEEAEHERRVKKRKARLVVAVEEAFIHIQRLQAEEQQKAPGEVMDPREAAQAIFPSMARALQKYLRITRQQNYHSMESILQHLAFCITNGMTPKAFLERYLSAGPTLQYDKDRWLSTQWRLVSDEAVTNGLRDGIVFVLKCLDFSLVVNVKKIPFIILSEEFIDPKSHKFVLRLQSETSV

Some of the results follow.

Compound in one experiment: Cc1sc2c(c1C)C(c1ccc(Cl)cc1)=N[C@@H](CC(=O)OC(C)(C)C)c1nnc(C)n1-2
Nature of the experiment: log2 fold change, soluble protein after heating vs DMSO (PISA); higher = thermal stabilisation; K562 cells, 10 uM, 30 min; active = over 0.2 and 3.5 SD of the protein, either way, in both replicates (recomputed). In short, it runs like this:
(§1)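 For each measurement, 10 μM compound was applied for 30 min to K562 cells at 2×10^6 cells/mL. Aliquots were heated for 3 min across 48°C-58°C, pooled, and extracted in PBS with 0.5% NP-40 at 4°C; the supernatant after 21,000xg for 90 min was soluble protein. This was quantified by TMTpro 16plex LC-MS/MS with channel sums equalised, and thermal stability was reported relative to control samples from duplicates, on a log2 fold-change scale.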
For the target UXT isoform 2 (UniProt Q9UBK9), the log2 fold change is inactive: -0.005.

Turning to UBQLN4 (UniProt Q9NRR5), the log2 fold change was inactive: -0.013. Still for that read-out and setting: next, UCKL1 (UniProt Q9NWZ5): inactive: -0.004. On to VAPA isoform 2 (UniProt Q9P0L0), for which the log2 fold change was inactive: -0.019. Still for that read-out and setting: then UBFD1 (UniProt O14562), with inactive: -0.037; and VAMP2 (UniProt P63027), with inactive: -0.016; and UBE4B isoform 4 (UniProt O95155), with inactive: 0.006.

Consider UBE3D (UniProt Q7Z6J8), for which the log2 fold change was inactive: -0.051. UGGT1 (UniProt Q9NYU2): the log2 fold change was inactive: -0.007. UBR7 (UniProt Q8N806): the log2 fold change is inactive: 0.01.

In the case of UQCC2 (UniProt Q9BRT2), the log2 fold change was inactive: -0.157. In the case of UGDH (UniProt O60701), the log2 fold change is inactive: -0.04. Same read-out and setting: then UCK1 (UniProt Q9HA47), with inactive: 0.001; and UTP4 (UniProt Q969X6), with inactive: 0.004; and USP10 isoform 2 (UniProt Q14694), with inactive: 0.066.

Compound in a further experiment: c1ccc([C@@H]2C[C@H]2NC2CCNCC2)cc1
The experiment is described as above. An outline of the steps:
as §1
Consider VBP1 (UniProt P61758), for which the log2 fold change is inactive: 0.028. With UBE3C (UniProt Q15386), the log2 fold change is inactive: 0.002. On the same count and under the same terms, next, UNC119B (UniProt A6NIH7): inactive: -0.009; USP25 isoform 3 (UniProt Q9UHP3): inactive: -0.007. UQCR10 (UniProt Q9UDW1): the log2 fold change is inactive: -0.009. As to USP5 (UniProt P45974), the log2 fold change was inactive: -0.047.

For the target UIMC1 (UniProt Q96RL1), the log2 fold change is inactive: 0.022. Still for that read-out and setting: then USP8 (UniProt P40818), with inactive: -0.025. Same read-out and setting: then USP24 (UniProt Q9UPU5), with inactive: -0.033; and USP48 isoform 8 (UniProt Q86UV5), with inactive: 0.119; and USE1 (UniProt Q9NZ43), with inactive: 0.02.

As to UBXN4 (UniProt Q92575), the log2 fold change is inactive: 0.019. Still for that read-out and setting: then UFM1 isoform 2 (UniProt P61960), with inactive: -0.048; and UNC45A (UniProt Q9H3U1), with inactive: -0.022; and UTP15 (UniProt Q8TED0), with inactive: 0. In the case of USP39 (UniProt Q53GS9), the log2 fold change is inactive: -0.005. Regarding VANGL1 (UniProt Q8TAA9), the log2 fold change is inactive: 0.136. On the same count and under the same terms, then VAMP4 (UniProt O75379), with inactive: -0.003; and UBR5 (UniProt O95071), with inactive: 0.072; and UQCRC2 (UniProt P22695), with inactive: -0.01.

Turning to USP22 (UniProt Q9UPT9), the log2 fold change is inactive: -0.055. Consider UNK (UniProt Q9C0B0), for which the log2 fold change was inactive: 0.032. UBXN10 (UniProt Q96LJ8): the log2 fold change was inactive: 0.063. For UXT isoform 2 (UniProt Q9UBK9), the log2 fold change is inactive: -0.077. As for UBQLN4 (UniProt Q9NRR5), the log2 fold change was inactive: 0.008. Turning to UCKL1 (UniProt Q9NWZ5), the log2 fold change is inactive: -0.108. VAPA isoform 2 (UniProt Q9P0L0): the log2 fold change is inactive: 0.035.

With UBFD1 (UniProt O14562), the log2 fold change was inactive: -0.065. As for VAMP2 (UniProt P63027), the log2 fold change was inactive: 0.066. On to UBE4B isoform 4 (UniProt O95155), for which the log2 fold change is inactive: -0.003.

Turning to UBE3D (UniProt Q7Z6J8), the log2 fold change was inactive: 0.009. On to UGGT1 (UniProt Q9NYU2), for which the log2 fold change is inactive: -0.021. Turning to UBR7 (UniProt Q8N806), the log2 fold change is inactive: 0.002. On the same count and under the same terms, then UQCC2 (UniProt Q9BRT2), with inactive: 0.083; and UGDH (UniProt O60701), with inactive: -0.038. As to UCK1 (UniProt Q9HA47), the log2 fold change was inactive: -0.002.

Regarding UTP4 (UniProt Q969X6), the log2 fold change was inactive: -0.021. Regarding USP10 isoform 2 (UniProt Q14694), the log2 fold change was inactive: -0.004.
